The supplement of paper PMC10849652
The other results are listed elsewhere or left out.

Chains of the proteins cited; added tags and fusions are not shown. Lines headed by an entry give the natural chain unless they say otherwise; changes in a name come on top.
UniProt Q9Y217: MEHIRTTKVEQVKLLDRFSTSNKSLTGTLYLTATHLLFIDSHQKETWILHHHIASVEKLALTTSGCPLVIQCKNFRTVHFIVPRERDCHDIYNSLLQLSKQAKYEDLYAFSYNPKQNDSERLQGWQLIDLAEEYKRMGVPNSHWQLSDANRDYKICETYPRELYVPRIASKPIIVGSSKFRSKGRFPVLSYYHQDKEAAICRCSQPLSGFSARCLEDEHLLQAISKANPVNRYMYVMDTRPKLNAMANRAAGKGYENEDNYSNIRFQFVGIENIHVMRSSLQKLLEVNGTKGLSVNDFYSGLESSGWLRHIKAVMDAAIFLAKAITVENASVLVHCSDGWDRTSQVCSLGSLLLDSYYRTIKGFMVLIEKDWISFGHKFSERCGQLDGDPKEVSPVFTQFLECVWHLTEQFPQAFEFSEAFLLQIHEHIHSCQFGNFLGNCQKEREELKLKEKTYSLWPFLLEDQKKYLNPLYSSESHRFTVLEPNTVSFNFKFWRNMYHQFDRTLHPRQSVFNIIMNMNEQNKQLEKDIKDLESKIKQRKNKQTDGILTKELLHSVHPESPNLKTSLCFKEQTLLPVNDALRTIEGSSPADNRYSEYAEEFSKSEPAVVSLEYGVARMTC
UniProt P52701: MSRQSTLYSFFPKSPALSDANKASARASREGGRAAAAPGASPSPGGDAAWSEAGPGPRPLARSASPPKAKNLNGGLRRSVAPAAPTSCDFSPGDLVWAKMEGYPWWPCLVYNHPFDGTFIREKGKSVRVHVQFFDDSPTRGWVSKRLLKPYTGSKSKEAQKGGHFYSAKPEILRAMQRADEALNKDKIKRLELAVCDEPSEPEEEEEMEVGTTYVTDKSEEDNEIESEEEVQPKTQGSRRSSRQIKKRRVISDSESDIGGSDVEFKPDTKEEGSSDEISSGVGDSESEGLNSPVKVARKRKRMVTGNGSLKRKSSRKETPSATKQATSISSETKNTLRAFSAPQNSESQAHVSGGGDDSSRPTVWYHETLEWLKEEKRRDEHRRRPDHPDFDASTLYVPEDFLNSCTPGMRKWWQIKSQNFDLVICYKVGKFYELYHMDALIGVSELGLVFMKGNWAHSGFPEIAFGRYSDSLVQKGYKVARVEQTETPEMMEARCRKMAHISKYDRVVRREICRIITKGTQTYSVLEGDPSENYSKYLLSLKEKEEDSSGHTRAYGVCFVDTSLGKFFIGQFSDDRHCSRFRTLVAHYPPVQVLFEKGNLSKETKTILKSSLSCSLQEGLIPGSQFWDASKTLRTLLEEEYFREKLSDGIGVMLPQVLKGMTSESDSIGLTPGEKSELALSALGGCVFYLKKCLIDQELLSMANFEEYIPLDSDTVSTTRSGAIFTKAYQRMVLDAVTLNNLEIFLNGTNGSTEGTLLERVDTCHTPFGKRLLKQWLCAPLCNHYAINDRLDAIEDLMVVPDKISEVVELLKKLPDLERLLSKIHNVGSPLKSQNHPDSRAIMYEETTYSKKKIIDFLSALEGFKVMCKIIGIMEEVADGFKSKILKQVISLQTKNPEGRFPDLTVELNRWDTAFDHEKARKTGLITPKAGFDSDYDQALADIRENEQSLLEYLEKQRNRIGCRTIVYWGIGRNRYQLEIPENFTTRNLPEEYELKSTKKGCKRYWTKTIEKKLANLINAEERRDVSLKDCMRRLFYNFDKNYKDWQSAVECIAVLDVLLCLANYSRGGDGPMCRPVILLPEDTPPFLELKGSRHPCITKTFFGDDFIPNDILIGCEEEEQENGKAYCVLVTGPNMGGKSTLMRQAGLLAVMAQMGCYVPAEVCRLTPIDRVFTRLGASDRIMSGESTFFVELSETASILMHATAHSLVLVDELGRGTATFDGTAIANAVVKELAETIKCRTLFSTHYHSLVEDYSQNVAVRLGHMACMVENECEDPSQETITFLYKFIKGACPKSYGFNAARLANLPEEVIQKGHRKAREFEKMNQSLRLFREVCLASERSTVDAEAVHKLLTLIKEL
UniProt P82909: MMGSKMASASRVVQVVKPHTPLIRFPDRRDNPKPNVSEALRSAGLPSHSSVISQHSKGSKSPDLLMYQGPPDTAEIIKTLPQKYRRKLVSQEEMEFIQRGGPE
UniProt P03905, whole entry, looked up: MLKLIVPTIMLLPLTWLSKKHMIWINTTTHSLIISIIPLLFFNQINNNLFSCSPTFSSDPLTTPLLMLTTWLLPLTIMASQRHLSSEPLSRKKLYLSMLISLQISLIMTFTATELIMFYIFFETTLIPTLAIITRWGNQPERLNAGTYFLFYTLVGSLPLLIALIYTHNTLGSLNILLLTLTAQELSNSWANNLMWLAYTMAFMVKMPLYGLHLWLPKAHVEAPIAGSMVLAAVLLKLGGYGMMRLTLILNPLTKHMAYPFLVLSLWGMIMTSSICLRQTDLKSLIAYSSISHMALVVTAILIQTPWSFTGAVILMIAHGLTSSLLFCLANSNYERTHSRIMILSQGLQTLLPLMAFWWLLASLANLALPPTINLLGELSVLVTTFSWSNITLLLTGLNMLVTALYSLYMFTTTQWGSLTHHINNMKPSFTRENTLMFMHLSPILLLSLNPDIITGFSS
UniProt P00846: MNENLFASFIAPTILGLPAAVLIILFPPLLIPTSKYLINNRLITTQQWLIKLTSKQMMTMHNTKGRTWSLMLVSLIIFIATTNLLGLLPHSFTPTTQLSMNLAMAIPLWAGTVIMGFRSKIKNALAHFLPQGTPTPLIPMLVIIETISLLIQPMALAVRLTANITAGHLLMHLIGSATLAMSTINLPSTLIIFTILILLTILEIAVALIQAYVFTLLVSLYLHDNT
UniProt P42285: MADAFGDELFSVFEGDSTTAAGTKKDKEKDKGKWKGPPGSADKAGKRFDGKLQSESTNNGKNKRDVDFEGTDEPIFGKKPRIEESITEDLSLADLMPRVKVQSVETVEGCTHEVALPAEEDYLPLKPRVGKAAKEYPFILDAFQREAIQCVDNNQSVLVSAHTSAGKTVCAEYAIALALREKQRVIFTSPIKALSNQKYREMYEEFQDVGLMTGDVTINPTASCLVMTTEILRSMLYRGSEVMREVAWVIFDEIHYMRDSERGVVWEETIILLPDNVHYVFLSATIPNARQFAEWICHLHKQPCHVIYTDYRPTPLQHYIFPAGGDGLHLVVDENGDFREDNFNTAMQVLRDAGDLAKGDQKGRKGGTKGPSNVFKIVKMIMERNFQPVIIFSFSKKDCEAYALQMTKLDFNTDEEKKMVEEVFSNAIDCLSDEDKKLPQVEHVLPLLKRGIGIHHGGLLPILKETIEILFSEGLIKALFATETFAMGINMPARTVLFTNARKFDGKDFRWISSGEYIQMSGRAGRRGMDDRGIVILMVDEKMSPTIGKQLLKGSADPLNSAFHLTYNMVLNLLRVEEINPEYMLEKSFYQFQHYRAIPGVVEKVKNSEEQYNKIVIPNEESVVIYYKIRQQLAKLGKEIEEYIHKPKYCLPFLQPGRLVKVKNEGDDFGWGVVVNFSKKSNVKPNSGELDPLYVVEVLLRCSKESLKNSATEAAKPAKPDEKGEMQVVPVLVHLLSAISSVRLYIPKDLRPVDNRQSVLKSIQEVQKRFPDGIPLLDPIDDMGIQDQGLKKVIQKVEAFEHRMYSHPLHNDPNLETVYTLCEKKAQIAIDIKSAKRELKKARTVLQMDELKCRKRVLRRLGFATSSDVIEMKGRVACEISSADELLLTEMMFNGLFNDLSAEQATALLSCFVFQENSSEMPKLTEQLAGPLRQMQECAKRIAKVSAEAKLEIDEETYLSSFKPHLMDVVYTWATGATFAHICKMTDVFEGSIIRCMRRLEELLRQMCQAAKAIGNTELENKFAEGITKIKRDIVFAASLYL
UniProt P00403, whole entry, looked up: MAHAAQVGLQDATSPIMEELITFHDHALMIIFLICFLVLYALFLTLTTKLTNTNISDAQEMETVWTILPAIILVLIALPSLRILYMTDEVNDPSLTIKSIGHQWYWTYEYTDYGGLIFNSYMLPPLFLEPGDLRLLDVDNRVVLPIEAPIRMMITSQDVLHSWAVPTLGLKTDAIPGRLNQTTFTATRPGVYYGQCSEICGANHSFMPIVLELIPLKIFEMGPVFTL
UniProt Q9NZJ7, whole entry, looked up: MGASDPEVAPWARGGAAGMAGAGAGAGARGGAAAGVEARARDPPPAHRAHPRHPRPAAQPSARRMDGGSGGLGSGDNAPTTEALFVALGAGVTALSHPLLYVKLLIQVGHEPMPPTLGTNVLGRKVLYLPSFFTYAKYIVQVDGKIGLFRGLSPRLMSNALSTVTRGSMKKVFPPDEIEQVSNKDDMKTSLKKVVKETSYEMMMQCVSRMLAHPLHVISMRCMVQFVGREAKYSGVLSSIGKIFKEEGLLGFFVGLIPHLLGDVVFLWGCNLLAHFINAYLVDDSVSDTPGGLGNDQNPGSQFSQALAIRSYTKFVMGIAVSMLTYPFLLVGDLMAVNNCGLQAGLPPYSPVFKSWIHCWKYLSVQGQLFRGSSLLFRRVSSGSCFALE
UniProt Q2M296: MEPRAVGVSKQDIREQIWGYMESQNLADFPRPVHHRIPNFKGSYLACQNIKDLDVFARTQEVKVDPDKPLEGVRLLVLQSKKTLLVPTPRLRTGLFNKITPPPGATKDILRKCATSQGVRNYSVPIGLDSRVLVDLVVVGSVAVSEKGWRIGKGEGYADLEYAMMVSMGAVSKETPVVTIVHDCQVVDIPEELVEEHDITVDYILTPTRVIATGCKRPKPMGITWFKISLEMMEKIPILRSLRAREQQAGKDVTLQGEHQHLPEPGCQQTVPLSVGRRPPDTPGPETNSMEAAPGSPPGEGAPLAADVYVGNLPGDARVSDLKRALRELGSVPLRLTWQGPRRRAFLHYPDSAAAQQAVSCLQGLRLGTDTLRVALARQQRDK
UniProt Q99707: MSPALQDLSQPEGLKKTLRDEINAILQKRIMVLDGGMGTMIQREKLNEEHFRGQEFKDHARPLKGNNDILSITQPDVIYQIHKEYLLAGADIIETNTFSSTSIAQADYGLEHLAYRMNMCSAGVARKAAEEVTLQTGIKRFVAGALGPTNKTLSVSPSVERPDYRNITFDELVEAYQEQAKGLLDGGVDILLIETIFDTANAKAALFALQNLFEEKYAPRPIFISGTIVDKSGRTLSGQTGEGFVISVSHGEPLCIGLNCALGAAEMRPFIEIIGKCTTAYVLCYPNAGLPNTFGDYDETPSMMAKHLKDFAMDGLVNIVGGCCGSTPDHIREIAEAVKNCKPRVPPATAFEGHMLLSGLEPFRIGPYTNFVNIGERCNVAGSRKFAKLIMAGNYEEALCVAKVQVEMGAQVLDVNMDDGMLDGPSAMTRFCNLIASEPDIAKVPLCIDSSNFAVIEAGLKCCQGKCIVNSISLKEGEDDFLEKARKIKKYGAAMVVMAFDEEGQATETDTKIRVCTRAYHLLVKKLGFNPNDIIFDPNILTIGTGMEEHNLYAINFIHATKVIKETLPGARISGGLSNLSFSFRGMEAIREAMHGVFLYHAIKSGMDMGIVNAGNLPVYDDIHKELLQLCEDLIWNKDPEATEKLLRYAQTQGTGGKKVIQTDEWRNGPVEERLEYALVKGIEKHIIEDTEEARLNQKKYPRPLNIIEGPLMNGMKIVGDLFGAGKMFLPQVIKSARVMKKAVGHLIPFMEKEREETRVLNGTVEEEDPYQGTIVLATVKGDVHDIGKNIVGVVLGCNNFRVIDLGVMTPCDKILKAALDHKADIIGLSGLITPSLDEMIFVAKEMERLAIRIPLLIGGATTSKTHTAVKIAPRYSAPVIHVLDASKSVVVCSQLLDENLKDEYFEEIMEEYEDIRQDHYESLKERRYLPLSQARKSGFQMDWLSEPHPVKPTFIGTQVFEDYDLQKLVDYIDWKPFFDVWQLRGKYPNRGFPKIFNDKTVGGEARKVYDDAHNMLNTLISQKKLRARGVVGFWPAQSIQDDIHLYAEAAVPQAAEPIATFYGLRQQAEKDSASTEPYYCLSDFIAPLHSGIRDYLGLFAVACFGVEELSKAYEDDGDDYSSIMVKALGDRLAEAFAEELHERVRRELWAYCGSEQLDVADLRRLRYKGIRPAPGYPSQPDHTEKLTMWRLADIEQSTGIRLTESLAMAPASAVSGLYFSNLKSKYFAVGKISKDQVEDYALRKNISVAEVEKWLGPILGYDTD
UniProt P03886, whole entry, looked up: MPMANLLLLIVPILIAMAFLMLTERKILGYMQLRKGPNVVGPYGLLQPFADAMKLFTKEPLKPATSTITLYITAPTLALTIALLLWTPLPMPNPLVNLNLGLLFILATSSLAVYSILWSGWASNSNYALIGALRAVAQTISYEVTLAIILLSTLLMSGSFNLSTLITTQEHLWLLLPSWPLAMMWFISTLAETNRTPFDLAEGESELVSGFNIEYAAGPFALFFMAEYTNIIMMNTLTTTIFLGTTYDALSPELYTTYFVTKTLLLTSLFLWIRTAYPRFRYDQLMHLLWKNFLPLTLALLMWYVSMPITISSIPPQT
UniProt P58546, whole entry, looked up: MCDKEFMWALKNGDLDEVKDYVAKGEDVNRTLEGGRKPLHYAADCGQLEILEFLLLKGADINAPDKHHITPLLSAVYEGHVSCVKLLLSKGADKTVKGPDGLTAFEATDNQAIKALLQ

Tests used:
Test in all cases: log2 fold change, soluble protein after heating vs DMSO (PISA); higher = thermal stabilisation; K562 lysate, 10 uM; active = over 0.2 and 3.5 SD of the protein, either way, in both replicates (recomputed)
nilotinib = compound: Cc1cn(-c2cc(NC(=O)c3ccc(C)c(Nc4nccc(-c5cccnc5)n4)c3)cc(C(F)(F)F)c2)cn1 [nilotinib]
Outline: (§1)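 Dounce homogenisation of K562 pellets in PBS pH 7.4 with 1 mM MgCl2 produced a crude extract, used at 1 mg/mL protein. Exposure to 10 μM compound lasted 30 min, and aliquots were then heated for 3 min across 48°C-58°C, pooled and brought to 0.5% NP-40 at 4°C. The supernatant after 21,000xg for 90 min was quantified by TMTpro 16plex LC-MS/MS with channel sums equalised. Duplicate values are given as log-two fold change in thermal stability relative to solvent controls.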

[1] = compound: Cc1nc(Nc2n[nH]c3c2CN(C(=O)N[C@H](CN(C)C)c2ccccc2)C3(C)C)c2sccc2n1
Outline: as §1

dasatinib = compound: Cc1nc(Nc2ncc(C(=O)Nc3c(C)cccc3Cl)s2)cc(N2CCN(CCO)CC2)n1 [dasatinib]
Outline: as §1

[2] = compound: Cc1ncc(-c2ccnc(Nc3ccc(S(C)(=O)=O)cc3)n2)n1C(C)C
Outline: as §1

[3] = compound: Cn1cc(-c2ccc3c(c2)CCN3C(=O)Cc2cccc(C(F)(F)F)c2)c2c(N)ncnc21
Outline: as §1

quisinostat = compound: Cn1cc(CNCC2CCN(c3ncc(C(=O)NO)cn3)CC2)c2ccccc21 [quisinostat]
Outline: as §1

tipifarnib = compound: Cn1cncc1[C@@](N)(c1ccc(Cl)cc1)c1ccc2c(c1)c(-c1cccc(Cl)c1)cc(=O)n2C [tipifarnib]
Outline: as §1

[4] = compound: NC(=O)Nc1cc(-c2cccc(F)c2)sc1C(=O)N[C@H]1CCCNC1
Outline: as §1

[5] = compound: NC(=O)c1cnc(N[C@@H]2CCCC[C@@H]2N)nc1Nc1cccc(-n2nccn2)c1
Outline: as §1

[6] = compound: NC1(c2ccc(-c3nc4ccn5c(=O)[nH]nc5c4cc3-c3ccccc3)cc2)CCC1
Outline: as §1

Measured: log2 fold change

MRPS21 (UniProt P82921)
inactive: nilotinib 0.032 | [1] -0.048 | dasatinib 0.022 | [2] 0.078 | [3] 0 | quisinostat -0.052 | tipifarnib -0.17 | [4] 0.056 | [5] -0.027

MTMR6 (UniProt Q9Y217)
inactive: nilotinib -0.04 | [1] 0.063 | dasatinib -0.036 | [2] -0.026 | [3] -0.076 | quisinostat -0.116 | tipifarnib -0.024 | [4] 0.086 | [5] -0.007 | [6] -0.032

MTHFD1, A0A384N5Y3
inactive: nilotinib 0.005 | [1] -0.018 | dasatinib -0.081 | [2] -0.008 | [3] 0.032 | quisinostat -0.044 | tipifarnib -0.02 | [4] 0.039 | [5] 0.008 | [6] -0.017

MRPL27 (UniProt Q9P0M9)
inactive: nilotinib -0.112 | [1] 0.027 | dasatinib 0.089 | [2] -0.039 | [3] 0.091 | quisinostat -0.012 | tipifarnib 0.015 | [4] -0.006 | [5] 0.072 | [6] -0.064

MRPL24 (UniProt Q96A35)
inactive: nilotinib 0.045 | [1] -0.016 | dasatinib 0.026 | [2] 0.025 | [3] 0.04 | quisinostat -0.056 | tipifarnib 0.049 | [4] -0.009 | [5] 0.014 | [6] -0.066

MSH6 (UniProt P52701)
inactive: nilotinib -0.005 | [1] 0.011 | dasatinib -0.073 | [2] -0.002 | [3] 0.03 | quisinostat -0.091 | tipifarnib -0.009 | [4] 0.072 | [5] 0.006 | [6] -0.045

MRS2 (UniProt Q9HD23)
inactive: nilotinib -0.046 | [1] 0.056 | dasatinib -0.01 | [2] 0.005 | [3] 0.053 | quisinostat 0.005 | tipifarnib -0.027 | [4] 0.01 | [5] 0.005 | [6] 0.015

MTMR1 (UniProt Q13613)
inactive: nilotinib 0.001 | [1] -0.009 | dasatinib -0.014 | [2] 0.025 | [3] 0.039 | quisinostat 0.15 | tipifarnib 0 | [4] -0.016 | [5] 0.023 | [6] -0.013

MRPS36 (UniProt P82909)
inactive: nilotinib 0.029 | [1] -0.021 | dasatinib 0.238 | [2] 0.1 | [3] -0.003 | quisinostat -0.133 | tipifarnib -0.006 | [4] -0.019 | [5] -0.049 | [6] -0.012

MTSS1 isoform 5 (UniProt O43312)
inactive: nilotinib 0.148 | [1] 0.524 | dasatinib 0.597 | [2] -0.091 | [3] -0.228 | quisinostat 0.069 | tipifarnib -0.141 | [4] -0.04 | [5] 0.394

MT-ND4 (UniProt P03905)
inactive: nilotinib 0.019 | [1] -0.039 | dasatinib -0.13 | [2] 0.106 | [3] -0.031 | quisinostat -0.145 | tipifarnib -0.012 | [4] 0.036 | [5] 0.012 | [6] -0.017

MTERF3 (UniProt Q96E29)
inactive: nilotinib -0.014 | [1] -0.073 | dasatinib -0.14 | [2] -0.004 | [3] 0.063 | quisinostat -0.037 | tipifarnib -0.004 | [4] 0.025 | [5] 0.008 | [6] -0.198

MT-ATP6 (UniProt P00846)
inactive: nilotinib 0 | [1] -0.068 | dasatinib -0.147 | [2] 0.026 | [3] 0.224 | quisinostat 0.012 | tipifarnib -0.119 | [4] -0.02 | [5] -0.109 | [6] 0

MRPS23 (UniProt Q9Y3D9)
inactive: nilotinib -0.036 | [1] 0.005 | dasatinib 0.021 | [2] 0.071 | [3] 0.035 | quisinostat 0.046 | tipifarnib 0.039 | [4] -0.019 | [5] 0.036 | [6] 0.069

MRRF (UniProt Q96E11)
inactive: nilotinib 0 | [1] 0.021 | dasatinib 0.002 | [2] 0.031 | [3] 0.009 | quisinostat 0.043 | tipifarnib 0.029 | [4] 0 | [5] -0.004 | [6] 0.017

MTREX (UniProt P42285)
inactive: nilotinib -0.001 | [1] -0.002 | dasatinib -0.002 | [2] -0.002 | [3] 0.017 | quisinostat 0.006 | tipifarnib 0.007 | [4] 0.011 | [5] 0 | [6] 0.004

MT-CO2 (UniProt P00403)
inactive: nilotinib -0.014 | [1] -0.104 | dasatinib 0.017 | [2] 0.065 | [3] 0.012 | quisinostat -0.023 | tipifarnib 0.009 | [4] -0.016 | [5] -0.096 | [6] 0.033

MTCH1 (UniProt Q9NZJ7)
inactive: nilotinib -0.019 | [1] -0.017 | dasatinib 0.04 | [2] -0.01 | [3] -0.035 | quisinostat 0.057 | tipifarnib 0.031 | [4] 0.003 | [5] -0.015 | [6] 0.005

Two records drawn at random from those above:
MRPS23 (UniProt Q9Y3D9)
inactive: nilotinib -0.036 | [1] 0.005 | dasatinib 0.021 | [2] 0.071 | [3] 0.035 | quisinostat 0.046 | tipifarnib 0.039 | [4] -0.019 | [5] 0.036 | [6] 0.069

MT-CO2 (UniProt P00403)
inactive: nilotinib -0.014 | [1] -0.104 | dasatinib 0.017 | [2] 0.065 | [3] 0.012 | quisinostat -0.023 | tipifarnib 0.009 | [4] -0.016 | [5] -0.096 | [6] 0.033

Later entries.

MRPL43 isoform 4 (UniProt Q8N983)
inactive: nilotinib 0.015 | [1] -0.107 | dasatinib -0.006 | [2] 0.018 | [3] 0.024 | quisinostat 0.003 | tipifarnib -0.119 | [4] -0.041 | [5] 0.003 | [6] -0.002

MTHFSD isoform 3 (UniProt Q2M296)
inactive: nilotinib 0.139 | [1] 0.095 | dasatinib 0.03 | [2] -0.01 | [3] -0.029 | quisinostat -0.005 | tipifarnib -0.125 | [4] 0.053 | [5] -0.025 | [6] 0.047

MTR (UniProt Q99707)
inactive: nilotinib -0.013 | [1] -0.009 | dasatinib -0.022 | [2] 0.006 | [3] 0.002 | quisinostat -0.047 | tipifarnib -0.01 | [4] 0.049 | [5] -0.009 | [6] -0.003

MRPS26 (UniProt Q9BYN8)
inactive: nilotinib 0.11 | [1] -0.3 | dasatinib -0.017 | [2] 0.209 | [3] 0.057 | quisinostat 0.001 | tipifarnib 0.303 | [4] 0.084 | [5] -0.009 | [6] 0.078

MT-ND1 (UniProt P03886)
inactive: nilotinib -0.054 | [1] 0.005 | dasatinib 0.018 | [2] -0.074 | [3] 0.035 | quisinostat -0.094 | tipifarnib -0.125 | [4] 0.033 | [5] -0.024 | [6] -0.059

MTSS2 (UniProt Q765P7)
inactive: nilotinib -0.092 | [1] 0.03 | dasatinib 0.017 | [2] 0.06 | [3] 0.036 | quisinostat 0.043 | tipifarnib -0.02 | [4] -0.01 | [5] 0.012 | [6] 0.011

MTPN (UniProt P58546)
inactive: nilotinib 0.074 | [1] 0.01 | dasatinib 0.04 | [2] 0.054 | [3] -0.036 | quisinostat 0.057 | tipifarnib -0.019 | [4] -0.047 | [5] -0.018 | [6] 0.029

MRPS6 (UniProt P82932)
inactive: nilotinib -0.004 | [1] -0.003 | dasatinib -0.027 | [2] -0.096 | [3] 0 | quisinostat -0.082 | tipifarnib -0.044 | [4] 0.028 | [5] -0.01 | [6] 0.05

MRPS16 (UniProt Q9Y3D3)
inactive: nilotinib 0.103 | [1] 0.034 | dasatinib 0.004 | [2] 0 | [3] 0.002 | quisinostat 0.004 | tipifarnib -0.005 | [4] 0.052 | [5] 0.017 | [6] 0.001

MTMR4 (UniProt Q9NYA4)
inactive: nilotinib -0.068 | [1] 0.025 | dasatinib -0.051 | [2] -0.106 | [3] 0.017 | quisinostat 0.027 | tipifarnib 0.091 | [4] 0.131 | [5] -0.025 | [6] 0.146

MRPL28 (UniProt Q13084)
inactive: nilotinib 0.03 | [1] -0.111 | dasatinib -0.013 | [2] -0.037 | [3] 0.051 | quisinostat -0.031 | tipifarnib 0.149 | [4] 0.057 | [5] 0.015 | [6] -0.058

MRPL48 (UniProt Q96GC5)
inactive: nilotinib 0.046 | [1] -0.088 | dasatinib -0.028 | [2] -0.022 | [3] 0.028 | quisinostat -0.009 | tipifarnib 0.002 | [4] -0.007 | [5] -0.019 | [6] -0.025
